For 37 molecules, maximal number results are on record in the supplement of paper PMC9549374.

The other results are listed elsewhere or left out. Cut-off read from the data, not from the text of the source: active = 2-fold of DMSO or more and inactive = the rest. Single values of this set are uncertain. Some low values are a fixed figure set by the source, not a measured ratio.

The test concerns CM7/1-hgem mouse ES cell-derived cardiomyocytes. Briefly: maximal number of mAG-hGem(1/110)-positive cardiomyocytes over 96 h, fold-change vs DMSO; higher = more cardiomyocyte cell cycle activity. Conditions: 1 µM; 96 (max over 12 h time points) h.
In the case of `O=C(c1cccnc1)N1CCOCC1`, the maximal number was inactive: 1.

As for `Nc1ccccc1C(=O)CC(N)C(=O)O` (configuration not stated), the maximal number was inactive: 1.

As for `C#CCCCCCCCCCCCC(O)CC(O)COC(C)=O` (configuration not stated), the maximal number was inactive: 1.

Take `CCCCC/C=C\C/C=C\C/C=C\C/C=C\CCCC(=O)O`: the maximal number is inactive: 1.

Take `CC(C)(C#N)c1cc(Cn2cncn2)cc(C(C)(C)C#N)c1`: the maximal number is inactive: 1.

For the molecule `O=C1C=C2CC3(O)COc4cc(O)ccc4C3=C2C=C1O` (configuration not stated), the maximal number is inactive: 1.

Regarding `Nc1c2ccccc2nc2ccccc12`, the maximal number was inactive: 1.

With `CC(=O)O[C@H]1C[C@@H](OC(C)=O)C(C)(C)[C@@H]2C[C@@H](OC(C)=O)[C@]3(C)[C@H](CC[C@@]4(C)[C@H](c5ccoc5)OC(=O)[C@H]5O[C@@]534)[C@@]12C`, the maximal number is inactive: 1.

For `O=C(/C=C/C=C/c1ccc2c(c1)OCO2)N1CCCCC1`, the maximal number is inactive: 1.

Take `O=C(O)C(=O)O.[NH-][C@@H]1CCCC[C@H]1[NH-].[Pt+2]`: the maximal number was inactive: 1.

For `COc1cc(-c2coc3cc(O[C@@H]4O[C@H](CO)[C@@H](O)[C@H](O)[C@H]4O)c(OC)c(O)c3c2=O)cc(O)c1OC`, the maximal number was inactive: 0.

In the case of `CCOc1nc2cccc(C(=O)O)c2n1Cc1ccc(-c2ccccc2-c2nnn[nH]2)cc1`, the maximal number was inactive: 1.

Turning to `COc1cc(O)cc(OC)c1OC`, the maximal number is inactive: 1.

`O=C(OC[C@H]1O[C@@H](OC(=O)c2cc(O)c(O)c(OC(=O)c3cc(O)c(O)c(O)c3)c2)[C@H](OC(=O)c2cc(O)c(O)c(OC(=O)c3cc(O)c(O)c(O)c3)c2)[C@@H](OC(=O)c2cc(O)c(O)c(OC(=O)c3cc(O)c(O)c(O)c3)c2)[C@@H]1OC(=O)c1cc(O)c(O)c(OC(=O)c2cc(O)c(O)c(O)c2)c1)c1cc(O)c(O)c(OC(=O)c2cc(O)c(O)c(O)c2)c1`: the maximal number was inactive: 1.

Turning to `COC(=O)Nc1nc2cc(Sc3ccccc3)ccc2[nH]1`, the maximal number was inactive: 1.

In the case of `O=C(O)c1cc(O)ccc1O`, the maximal number was inactive: 1.

Turning to `NC1(C(=O)O)CC1`, the maximal number is inactive: 1.

For `COc1cc(O)c2c(c1)C(=O)c1cc(C)cc(O)c1C2=O`, the maximal number is inactive: 0.

Turning to `C=C[C@@]1(C)CC(=O)[C@]2(O)[C@@]3(C)[C@@H](O)CCC(C)(C)[C@@H]3[C@H](O)[C@H](OC(C)=O)[C@@]2(C)O1`, the maximal number is inactive: 1.

As to `CC(COc1ccccc1)N(CCCl)Cc1ccccc1` (configuration not stated), the maximal number was inactive: 1.

On to `N[C@@H](CCC(=O)N[C@@H](CS)C(=O)NCC(=O)O)C(=O)O`, for which the maximal number is active: 2.

For `COc1cc(C/C=C/c2ccccc2)c(OC)cc1O`, the maximal number is inactive: 1.

For the molecule `Cc1ccc(Nc2c(F)cccc2Cl)c(CC(=O)O)c1`, the maximal number is inactive: 1.

Regarding `COC1=CC(=O)C(O)=C/C1=C\C=C\c1ccccc1`, the maximal number is inactive: 0.5.

With `CC(CCC(=O)O)[C@H]1CCC2C3C[C@H](O)[C@@H]4C[C@H](O)CC[C@]4(C)C3CC[C@@]21C` (stereo partly drawn) [alpha-HYDROXYDEOXYCHOLIC ACID], the maximal number is inactive: 0.

`CN1CCN(C2=Nc3ccccc3Oc3ccc(Cl)cc32)CC1`: the maximal number is inactive: 1.

`CC1(C)C(=O)[C@H]2C[C@]3(O)C4=CC(=O)O[C@@H](c5ccoc5)[C@@]4(C)CCC3[C@](C)(C2=O)[C@H]1CC(=O)O` (some centres not stated): the maximal number was inactive: 1.

In the case of `C=CC(C1=CC(=O)C(OC)=CC1=O)c1ccc(OC)cc1` (configuration not stated), the maximal number is inactive: 0.

Turning to `Oc1cc(O)c2c(c1)O[C@H](c1ccc(O)c(O)c1)[C@H](O)C2`, the maximal number is inactive: 1.

Regarding `COc1ccc(C(C)=O)c(O)c1`, the maximal number is inactive: 1.

Regarding `CC[C@H](C)C(=O)O[C@H]1CCC=C2C=C[C@H](C)[C@H](CC[C@@H]3C[C@@H](O)CC(=O)O3)[C@H]21`, the maximal number was inactive: 1.

Turning to `COc1ccc(/C=C/C(=O)O)cc1OC`, the maximal number was inactive: 0.5.

In the case of `COc1cc(O)c(C(C)=O)c(O)c1`, the maximal number is inactive: 1.

For the molecule `Nc1nc(O)c2ncn(CCC(CO)CO)c2n1`, the maximal number is inactive: 0.

For the molecule `COc1ccc(C(=O)NCc2ccc(OCCN(C)C)cc2)cc1OC`, the maximal number is inactive: 1.

`CC(=O)O[C@@H]1CC2C(C)(C)[C@H](O)CC[C@]2(C)C2CC[C@@]3(C)[C@H](c4ccoc4)OC(=O)C4OC43[C@@]21C` (stereo partly drawn) [alpha-DIHYDROGEDUNOL]: the maximal number was inactive: 1.

Consider `COC(=O)C[C@H]1C(C)(C)[C@@H](O)[C@@H]2CC3=C4CC(O)O[C@@H](c5ccoc5)[C@]4(C)CCC3[C@@]1(C)C2=O` (stereo partly drawn) [3,16-DIDEOXYMEXICANOLIDE-3beta-DIOL], for which the maximal number is inactive: 1.
